Results taken from article PMC6976901 (Toxicology Reports, 2020).

Assay: in vitro
Details: human, Caco-2

CC(C)NCC(O)COc1ccc(CC(N)=O)cc1 (stereo not shown) [atenolol, reference compound]
Papp: 0.5 ± 0.1 ×10⁻⁶ cm/s
